Test: peptide synthesis
Conditions: conjugation step, RP-HPLC

## PEG-liraglutide
  purity (crude or final not stated): about 97%
